Reference: PMC5665887

The substances below were run against T1, FLAG-tagged evectin-2 (WT) (UniProt Q96CS7) (assay: affinity purification with mass spectrometry; immunoprecipitates of FLAG-tagged evectin-2; peptides identified; cells and conditions not told in the text shown).
T1 sequence: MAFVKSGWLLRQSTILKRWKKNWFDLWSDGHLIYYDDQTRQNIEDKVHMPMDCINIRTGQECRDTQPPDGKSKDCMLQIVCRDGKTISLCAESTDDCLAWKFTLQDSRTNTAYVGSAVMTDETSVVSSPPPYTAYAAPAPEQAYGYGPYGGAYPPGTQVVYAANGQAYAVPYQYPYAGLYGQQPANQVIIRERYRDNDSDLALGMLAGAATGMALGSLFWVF

Substance	binding
Itch (endogenous) (enzyme)	binds
WWP1 (endogenous) (enzyme)	binds
WWP2 (endogenous) (enzyme)	binds

No constants are given. Whether binding was seen depends on the method and setting. Binding seen in cells or lysates may run through a third protein. These calls come from enrichment with a bait or labelling near it, and not all partners need be listed. Where a sequence is shown, tags or fusion partners need not be part of it.
